# Measurements from PubChem BioAssay AID624297 (National Center for Advancing Translational Sciences (NCATS), 2012).
# Hit rate of the full screen: of about 340,000 compounds, about 6,200 (1.8%) were called active. This list was built around the results that the source calls inconclusive (neither active nor inactive); the mix of calls is not that of the screen. The call rests on the fitted dose curve; in most records, active means well fitted activation curve with a large enough effect; inconclusive means small, poorly fitted or top-dose-only effect; inactive means no such curve, though single readings can be large or run the other way. A potency beside an inconclusive call is a rough fit, not a confirmed value.
# Test: A quantitative high throughput screen for small molecules that induce DNA re-replication in SW480 colon adenocarcinoma cells. Further: nearly all actives have a fitted effect of over 55% in size. On re-replication activation: % of control where 0% means no effect.
# Settings: Hoechst DNA content imaging, 48 h; re-replication activation: at 46.1 µM (top of the series) unless noted
# Summary of the method: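 Compounds, transferred as 23 nL by pin tool, were incubated with cells for 48 hr; DNA content per nucleus was then quantified by Hoechst staining and fluorescence plate imaging.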
# Potency means the concentration at half of the fitted maximal effect.
Structure (SMILES),Potency,re-replication activation
c1ccc(C2c3[nH]c4ccccc4c3CCN2Cc2cccn2-c2ccccn2)nc1 (stereo not drawn),"inconclusive: 18.4 µM [activator, single point]",–
O=C(c1cccc(S(=O)(=O)Nc2cccc(C(F)(F)F)c2)c1)N1CCCCC1,"inconclusive: 6.51 µM [activator, single point]",–
Cc1ccc(C)c(NC(=O)COc2cccc3c2CCN(Cc2ccccc2C)C3=O)c1,"inconclusive: 23.1 µM [activator, partial curve, poor fit]",–
Cc1cccc(-n2c(-c3csc(C)c3)n[nH]c2=S)c1,"inconclusive: 31.6 µM [activator, single point]",–
Oc1ccc(-n2nnnc2SCc2ccccc2Br)cc1,"inconclusive: 18.4 µM [activator, partial curve, poor fit]",–
COc1ccc(CN(C)CCCn2cnc3c(OCc4ccccc4)ncnc32)cc1,–,inactive: 31.7% [at 9.22 µM]
O=C(N/N=C/c1ccc(Cl)cc1Cl)c1cccc(F)c1,inactive,–
CCC1OC(=O)C[C@@H](O)[C@H](C)[C@@H](OC2OC(C)CC(N(C)C)C2O)[C@@H](CC=O)C[C@@H](C)C(=O)/C=C/[C@]2(C)OC2C1C (stereo partly drawn),"inconclusive: 37.6 µM [activator, partial curve, poor fit]",–
Cc1cc(C)n2nc(C(=O)OCC(=O)Nc3ccc(F)cc3F)nc2n1,inactive,–
C#Cc1ccc([C@@H]2C=C(C(=O)NCc3ccccc3)O[C@H](OCCCCO)C2)cc1,"inconclusive: 29.1 µM [activator, single point]",–
Cc1ccccc1NC(=O)c1ccccc1N(C)S(=O)(=O)c1ccccc1,"inconclusive: 13 µM [activator, partial curve]",–
O=C(Nc1ccccc1Cl)C1CCCN(S(=O)(=O)c2ccc(F)cc2)C1 (stereo not drawn),inactive,–
Cc1cc(C)n2nc3nc(N4CCCCC4)nc(-c4ccco4)c3c2n1,"inconclusive: 14.6 µM [activator, partial curve, poor fit]",–
C/C(=N\NC(=O)c1c(C)nc2ccccn12)c1ccc(C(C)(C)C)cc1,"inconclusive: 0.58 µM [activator, partial curve, poor fit]",–
NNC(=O)c1cn2ccccc2n1,inactive,–
CS(=O)(=O)N(Cc1ccc(C(=O)NN=C2CCCCCC2)cc1)c1ccccc1,"inconclusive: 7.31 µM [activator, full curve, poor fit]",–
O=C(N/N=C/c1ccncc1)c1nc2ccccc2c(=O)[nH]1,–,inconclusive: -27.5% [activator]
COC(=O)c1ccc(NC(=S)NN2CCCCC2c2cccnc2)cc1 (stereo not drawn),inactive,–
Cc1c(C(=O)N/N=C/C(C)C)[nH]c2c([N+](=O)[O-])cccc12,"inconclusive: 29.1 µM [activator, single point]",–
Cc1cc2cc3c(cc2nc1SCC(=O)OC(C)C)OCCO3,"inconclusive: 23.1 µM [activator, partial curve, poor fit]",–
Cc1cc(Oc2ccc3ccccc3c2)nc(SCC(=O)c2ccccc2)n1,"inconclusive: 32.6 µM [activator, single point]",–
COC(=O)[C@@]1(C)[C@H]2C(=O)N(C)C(=O)[C@H]2[C@H]2CN=C(SC)N21,"inconclusive: 1.3 µM [activator, partial curve, poor fit]",–
CNC(=S)N/N=C/c1cc(C)ccc1C,inactive,–

# Ordered by number of heavy atoms (rising): some entries from above.
Structure (SMILES),Potency,re-replication activation
O=C(N/N=C/c1ccc(Cl)cc1Cl)c1cccc(F)c1,inactive,–
Oc1ccc(-n2nnnc2SCc2ccccc2Br)cc1,"inconclusive: 18.4 µM [activator, partial curve, poor fit]",–
O=C(N/N=C/c1ccncc1)c1nc2ccccc2c(=O)[nH]1,–,inconclusive: -27.5% [activator]
Cc1cc(C)n2nc(C(=O)OCC(=O)Nc3ccc(F)cc3F)nc2n1,inactive,–
Cc1ccccc1NC(=O)c1ccccc1N(C)S(=O)(=O)c1ccccc1,"inconclusive: 13 µM [activator, partial curve]",–
c1ccc(C2c3[nH]c4ccccc4c3CCN2Cc2cccn2-c2ccccn2)nc1 (stereo not drawn),"inconclusive: 18.4 µM [activator, single point]",–

# The results go on.

Structure (SMILES),Potency,re-replication activation
CCc1cc(C(=O)c2ccc(OC)cc2)c(NC(=O)CN2CCN(C)CC2)s1,"inconclusive: 20.6 µM [activator, single point]",–
Cc1cc(N2C(=O)C(=O)/C(=C(/O)c3ccccc3)C2c2cccs2)no1 (stereo not drawn),inactive,–
CCCCC(=O)Nc1cccc(-c2csc(-c3ccccc3)n2)c1,"inconclusive: 29.1 µM [activator, single point]",–
CNC(=S)NNC(=O)c1cccn(Cc2ccc(Cl)c(Cl)c2)c1=O,inactive,–
COc1ccc(/C(O)=C2/C(=O)C(=O)N(Cc3ccco3)C2c2cccs2)cc1 (stereo not drawn),"inconclusive: 29.1 µM [activator, single point]",–
CC(C)N(Cc1ccccc1)S(=O)(=O)c1ccc(Cl)nc1,"inconclusive: 11.6 µM [activator, partial curve, poor fit]",–
CC1(c2nnc(Cc3ccccc3)o2)CC(c2ccccc2[N+](=O)[O-])=NO1 (stereo not drawn),inactive,–
Cc1cc(C)cc(-n2c(SC(C)C(=O)NCc3ccc4c(c3)OCO4)nc3ccccc3c2=O)c1 (stereo not drawn),"inconclusive: 0.82 µM [activator, full curve, poor fit]",–
Cc1ccc(C(=O)O)cc1-c1ccc(/C=C2\SC(=O)N(CC(=O)Nc3ccccc3)C2=O)o1,inactive,–
CC1(C)Oc2ccc3ccc(=O)oc3c2/C(=C/NC2CCCCC2)C1=O,"inconclusive: 16.4 µM [activator, partial curve, poor fit]",–
O=C(N/N=C/c1ccccc1OCc1ccccc1)c1cccnc1,"inconclusive: 29.1 µM [activator, single point]",–
C/C(=N\NC(=O)c1ccccc1O)c1ccc(NC(=O)Cc2ccccc2)cc1,active: 11.6 µM,–
CCCCn1nc(C(=O)Nc2ccc(-n3cnnn3)cc2)c2ccccc2c1=O,"inconclusive: 29.1 µM [activator, single point]",–
Clc1ccc2nc(-c3ccc4c(c3)OCO4)cn2c1,active: 23.1 µM,–
COc1ccc(Nc2nc(NCc3ccco3)nc(N)c2[N+](=O)[O-])cc1,inactive,–
Cc1cc(NC(=O)CN(C)CC(=O)Nc2ccc(F)c(F)c2F)no1,inactive,–
COC(=O)N1CC=CC1(C)C(=O)NCc1cc(F)cc(C(F)(F)F)c1 (stereo not drawn),"inconclusive: 32.6 µM [activator, partial curve, poor fit]",–
C=C1CCN([C@@H](CC(C)C)C(=O)NCc2ccc(Cl)cc2)S(=O)(=O)c2ccccc21,inactive,–
S=C(Nc1ccccc1Cl)NC1CCCCCC1,"inconclusive: 0.103 µM [activator, full curve, poor fit]",–
Cc1ccc(C(=O)NC2CC(=O)N(c3ccc4c(c3)OCCO4)C2)cc1[N+](=O)[O-] (stereo not drawn),"inconclusive: 13 µM [activator, partial curve, poor fit]",–
COc1ccc(C(=O)Nn2c(SCc3cccc([N+](=O)[O-])c3)nc3ccccc3c2=O)cc1,"inconclusive: 29.1 µM [activator, single point]",–
COc1ccc(OC)c(C2C=C(C34CC5CC(CC(C5)C3)C4)NC(=S)N2)c1 (stereo not drawn),"inconclusive: 2.59 µM [activator, full curve]",–
CCN1C(=O)N(c2cccc3ccccc23)C(C)=CC1(C)C,inactive,–

Structure (SMILES),Potency,re-replication activation
COC(=O)CN1C(=O)S/C(=C/c2ccc(N3CCCCC3)o2)C1=O,"inconclusive: 29.1 µM [activator, single point]",–
COc1ccc(/C=C/c2nc3ccccc3n2Cc2ccccc2OC)cc1,"inconclusive: 23.1 µM [activator, single point]",–
CCOC(=O)C1=C(COC(=O)c2ccc(C)s2)NC(=O)NC1C (stereo not drawn),"inconclusive: 0.731 µM [activator, partial curve, poor fit]",–
O=C(NCCCN1CCOCC1)c1nn(-c2ccccc2)c(=O)c2ccccc12,"inconclusive: 6.51 µM [activator, single point]",–
COc1cc2c(cc1NC(=O)CN1C(=O)NC3(CCc4ccccc43)C1=O)oc1ccccc12 (stereo not drawn),"inconclusive: 14.6 µM [activator, partial curve, poor fit]",–
O=[N+]([O-])c1ccc(-c2nc(NCc3cccnc3)c3ccccc3n2)cc1,"inconclusive: 0.651 µM [activator, partial curve, poor fit]",–
CCSc1nnc([C@H](Cc2ccccc2)NC(=O)OC(C)(C)C)o1,inactive,–
O=C(Nc1ccc(OCC(=O)N2CCOCC2)cc1)c1ccccc1F,inactive,–
ClCc1nnc(-c2ccccc2)o1,"inconclusive: 29.1 µM [activator, single point]",–
O=C(CCl)N=c1sccn1Cc1ccc(Cl)cc1Cl,"inconclusive: 0.731 µM [activator, full curve, poor fit]",–
N#CC1(C#N)C(C(N)=O)C1c1ccccc1 (stereo not drawn),"inconclusive: 6.51 µM [activator, single point]",–
COc1ccc(/C=C/C(=O)c2ccc[nH]2)c(OC)c1OC,inactive,–
CCCN(CCO)C1CCN(CCc2ccccc2)CC1,"inconclusive: 29.1 µM [activator, single point]",–
CN(Cc1ccccc1)C(=O)COC(=O)c1cc(=O)[nH]c2ccccc12,inactive,–
CCC1=NN2C(=N)/C(=C\c3cccn3-c3ccc(C)c(C)c3)C(=O)N=C2S1,inactive,–
CS(=O)(=O)N(CC(=O)N1CCN(Cc2ccccc2)CC1)c1ccccc1Br,"inconclusive: 1.3 µM [activator, full curve, poor fit]",–
CC1CCc2c(sc(NC(=O)c3cccn3C)c2C(N)=O)C1 (stereo not drawn),"inconclusive: 16.4 µM [activator, partial curve, poor fit]",–
COc1ccc(NC(=O)CCNC(=O)c2ccc([N+](=O)[O-])cc2)cc1S(=O)(=O)N1CCOCC1,inactive,–
CN(C(=O)c1ccc(NC(=O)Cc2ccc(NC(=O)C3CCN(C(=O)C4CCCCC4)CC3)cc2)cc1)C1CC1,inactive,–
CCn1c(CSCc2ccc(F)cc2)nnc1SCC(=O)N1CCN(c2ccccc2)CC1,"inconclusive: 20.6 µM [activator, partial curve, poor fit]",–
O=C(CCc1nc2ccccc2c(=O)[nH]1)NNC(=O)c1ccc(F)cc1,inactive,–
Cc1ccc(C(C)C)c(OCCCN(C)Cc2ccccc2)c1,"inconclusive: 20.6 µM [activator, single point]",–
